Sequences of proteins named here, by UniProt entry; tags and fusion partners are left off. Residues count along the entry.
UniProt P26663, 2420-3010: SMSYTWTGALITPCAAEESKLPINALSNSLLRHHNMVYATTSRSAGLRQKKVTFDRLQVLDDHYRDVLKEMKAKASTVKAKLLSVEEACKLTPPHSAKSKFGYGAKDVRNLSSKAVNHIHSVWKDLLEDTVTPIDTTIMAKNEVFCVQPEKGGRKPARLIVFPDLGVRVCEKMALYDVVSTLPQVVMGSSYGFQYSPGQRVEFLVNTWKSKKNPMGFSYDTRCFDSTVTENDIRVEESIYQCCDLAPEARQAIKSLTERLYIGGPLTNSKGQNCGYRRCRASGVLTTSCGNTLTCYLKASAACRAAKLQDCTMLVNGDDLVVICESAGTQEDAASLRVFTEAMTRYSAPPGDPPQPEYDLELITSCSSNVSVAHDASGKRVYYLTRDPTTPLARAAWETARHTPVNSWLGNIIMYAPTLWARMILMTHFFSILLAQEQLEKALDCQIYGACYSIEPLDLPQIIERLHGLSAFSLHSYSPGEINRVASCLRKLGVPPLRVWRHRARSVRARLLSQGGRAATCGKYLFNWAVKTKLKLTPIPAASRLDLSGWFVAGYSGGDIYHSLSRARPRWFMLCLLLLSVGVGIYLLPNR

For at least one compound, name, drawing or mass did not settle the structure. Some entries share one result that the patent states for a list of compounds.
These compounds were tested against T1, HCV NS5B (Hepatitis C virus genotype 1b, UniProt P26663). Settings: not given.
T1 construct: The NS5B protein (591 amino acids, 65 kDa) of HCV
Format: biochemical
Protocol: The activity of the inventive compounds as inhibitors of HCV activity may be measured by any of the suitable methods known to those skilled in the art, including in vivo and in vitro assays. For example, the HCV NS5B inhibitory activity of the compounds of Formulas I, II and III was determined using standard assay procedures described in Behrens et al., EMBO J. 15:12-22 (1996), Lohmann et al., Virology 249:108-118 (1998) and Ranjith-Kumar et al., J. Virology 75:8615-8623 (2001).
The HCV NS5B inhibitory activity of the compounds of Formulas I, II m and IV was determined using standard procedures well known to those skilled in the art and described in, for example Behrens et al., EMBO J. 15:12-22 (1996), Lohmann et al., Virology 249:108-118 (1998) and Ranjith-Kumar et al., J. Virology 75:8615-8623 (2001).
With `CC(=O)Nc1ccc2c(c1)c(O)c(C1=NS(=O)(=O)c3ccccc3N1)c(=O)n2CCC(C)C` [Example 180, N-[3-(1,1-Dioxo-1,4-dihydro-1-benzo[1,2,4]thiadiazin-3-yl)-4-hydroxy-1-(3-methylbutyl)-2-oxo-1,2-dihydro-quinolin-6-yl]acetamide] the IC50 was > 10 µM. For `COc1ccc(COc2ccc3c(c2)c(O)c(C2=NS(=O)(=O)c4ccccc4N2)c(=O)n3CCC(C)C)cc1` [Example 189, 3-(1,1-Dioxo-1,4-dihydro-1-benzo[1,2,4]thiadiazin-3-yl)-4-hydroxy-6-(4-methoxy-benzyloxy)-1-(3-methylbutyl)-1H-quinolin-2-one], the IC50 was > 10 µM. With `CC(C)CCn1c(=O)c(C2=NS(=O)(=O)c3cc(-c4ccccc4)ccc3N2)c(O)c2ccccc21` [Example 174, 3-(1,1-Dioxo-7-phenyl-1,4-dihydro-1-benzo[1,2,4]thiadiazin-3-yl)-4-hydroxy-1-(3-methylbutyl)-1H-quinolin-2-one] the IC50 was > 10 µM. In the case of `CC(C)CCn1c(=O)c(C2=NS(=O)(=O)c3ccccc3N2)c(O)c2cc(Oc3cccc(Br)n3)ccc21` [Example 192, 6-(6-Bromo-pyridin-2-yloxy)-3-(1,1-dioxo-1,4-dihydro-1-benzo[1,2,4]thiadiazin-3-yl)4-hydroxy-1-(3-methylbutyl)-1H-quinolin-2-one], the IC50 is reported as > 10 µM. For `CC(C)CCn1c(=O)c(C2=NS(=O)(=O)c3ccccc3N2)c(O)c2cc(NC(=O)c3cccs3)ccc21` [Example 176, Thiophene-2-carboxylic acid [3-(1,1-dioxo-1,4-dihydro-1-benzo[1,2,4]thiadiazin-3-yl)-4-hydroxy-1-(3-methylbutyl)-2-oxo-1,2-dihydro-quinolin-6-yl]amide], the IC50 was > 10 µM. For `COc1ccc2c(c1)NC(c1c(O)c3ccccc3n(CCC(C)C)c1=O)=NS2(=O)=O` [Example 191, 4-Hydroxy-3-(6-methoxy-1,1-dioxo-1,4-dihydro-1-benzo[1,2,4]thiadiazin-3-yl)-1-(3-methylbutyl)-1H-quinolin-2-one], the IC50 was > 10 µM. In the case of `CC(C)CCn1c(=O)c(C2=NS(=O)(=O)c3ccccc3N2)c(O)c2cc(NC(=O)c3cccc(C(F)(F)F)c3)ccc21` [Example 177, N-[3-(1,1-Dioxo-1,4-dihydro-1-benzo[1,2,4]thiadiazin-3-yl)-4-hydroxy-1-(3-methylbutyl)-2-oxo-1,2-dihydro-quinolin-6-yl]-3-trifluorobenzamide], the IC50 is reported as > 10 µM. For `CC(C)CCn1c(=O)c(C2=NS(=O)(=O)c3ccccc3N2)c(O)c2cc(NC(=O)c3cccnc3)ccc21` [Example 179, N-[3-(1,1-Dioxo-1,4-dihydro-1-benzo[1,2,4]thiadiazin-3-yl)-4-hydroxy-1-(3-methylbutyl)-2-oxo-1,2-dihydro-quinolin-6-yl]-nicotinamide], the IC50 was > 10 µM. `CC(C)CCn1c(=O)c(C2=NS(=O)(=O)c3ccccc3N2)c(O)c2cc(NC(=O)c3cccc(F)c3)ccc21` [Example 178, N-[3-(1,1-Dioxo-1,4-dihydro-1-benzo[1,2,4]thiadiazin-3-yl)-4-hydroxy-1-(3-methylbutyl)-2-oxo-1,2-dihydro-quinolin-6-yl]-3-fluorobenzamide] was tested, and the IC50 was > 10 µM. With `COc1cccc(Oc2ccc3c(c2)c(O)c(C2=NS(=O)(=O)c4ccccc4N2)c(=O)n3CCC(C)C)n1` [Example 194, 3-(1,1-Dioxo-1,4-dihydro-1-benzo[1,2,4]thiadiazin-3-yl)-4-hydroxy-6-(6-methoxy-pyridin-2-yloxy)-1-(3-methylbutyl)-1H-quinolin-2-one] the IC50 was > 10 µM. In the case of `CC(C)CCOc1ccc2c(c1)c(O)c(C1=NS(=O)(=O)c3ccccc3N1)c(=O)n2CC(=O)O` [Example 184, [3-(1,1-Dioxo-1,4-dihydro-1-benzo[1,2,4]thiadiazin-3-yl)-4-hydroxy-6-(3-methyl-butoxy)-2-oxo-2H-quinolin-1-yl]acetic acid], the IC50 is reported as > 10 µM.

Same assay, conditions: screening rate of 10 uM
`CC(C)CCn1c(=O)c(C2=Nc3ccccc3S(=O)(=O)N2)c(O)c2cc(OCc3ccccc3)ccc21` [Example 202, 6-Benzyloxy-3-(1,1-dioxo-1,2-dihydrobenzo[1,2,4]thiadiazin-3-yl)-4-hydroxy-1-(3-methylbutyl)-1H-quinolin-2-one] was tested, and the “biological activity at the screening rate of 10 uM” value was “did not demonstrate biological activity”. In the case of `N#Cc1c(Cl)cc(Cl)cc1Cn1c(=O)c(C2=Nc3ccccc3S(=O)(=O)N2)c(O)c2ccccc21` [Example 197, 1-(2-Cyano3,5-dichlorobenzyl)-3-(1,1-dioxo-1,2-dihydrobenzo[1,2,4]thiadiazin-3-yl)-4-hydroxy-1H-quinolin-2-one], the “biological activity at the screening rate of 10 uM” value is reported as “did not demonstrate biological activity”.

— patent US20040147739A1, “Novel anti-infectives” (priority 2003, published 2004)
